Experimental data taken from PubChem BioAssay AID330 (DTP/NCI, 2004).
The list does not hold the whole screen: it gathers tests that were run many times, whatever their T/C, doses with no T/C, and many T/C values between a quarter and a half above the control. Other doses and runs of a compound stand elsewhere. T/C: endpoint of the treated group in % of that of the vehicle group. Some entries give survivors of the animals treated and no T/C: the source files T/C as zero there, which appears to mark a toxic dose or a test without result, not a measured value. Some survivor counts are full or nearly so, which does not show that the dose was tolerated: the source hardly ever lists a survival T/C far under the control, and the zero likely stands for such cases as well. Survivors were counted at the toxicity check, usually on the fifth day, unless a day is given; later deaths do not show. Schedules are NCI's codes, read here as Q, the interval in days (D) or hours (H), X, the number of doses. Counts like (3×) say how often a value occurs here. Some doses were run more than once; the results are listed from low to high. Where survival is the endpoint, the PubChem record calls one and a half times the control and up active, and a quarter to a half above the control has no call in these data; cut-offs in other NCI protocols can differ.

Test system: P388 leukemia ip, CD2F1 mice, survival T/C
Assay: NCI In Vivo Anticancer Drug Screen. Data for tumor model P388 Leukemia (intraperitoneal) in CD2F1 (CDF1) mice
Conditions: T/C endpoint: median survival time, higher T/C = longer survival

**Q.** Which survivor count (dose: 6.25 mg/kg/injection, schedule: Q01DX009 (ip), vehicle: saline) does the source give for `CC1(C)N=C(N)N=C(N)N1c1ccc(OCC(=O)N2CCOCC2)c(Cl)c1` here?
**A.** 6 of 6

**Q.** What about the survivor count (dose: 12.5 mg/kg/injection, schedule: Q01DX009 (ip), vehicle: saline) of the same compound?
**A.** 6 of 6

**Q.** And the survivor count (dose: 25.0 mg/kg/injection, schedule: Q01DX009 (ip), vehicle: saline)?
**A.** 6 of 6

**Q.** What about the survivor count (dose: 50.0 mg/kg/injection, schedule: Q01DX009 (ip), vehicle: saline) of the same compound?
**A.** 5 of 6

**Q.** And the T/C (dose: 66.0 mg/kg/injection, schedule: Q01DX009 (ip), vehicle: saline sonified)?
**A.** 130 % of control

**Q.** And the T/C (dose: 100.0 mg/kg/injection, schedule: Q01DX009 (ip), vehicle: saline sonified)?
**A.** 130 % of control

**Q.** What about the survivor count (dose: 100.0 mg/kg/injection, schedule: Q01DX009 (ip), vehicle: saline) of the same compound?
**A.** 6 of 6

**Q.** And the T/C (dose: 150.0 mg/kg/injection, schedule: Q01DX009 (ip), vehicle: saline sonified)?
**A.** 130 % of control

**Q.** What about the survivor count (dose: 200.0 mg/kg/injection, schedule: Q01DX009 (ip), vehicle: saline) of the same compound?
**A.** 0 of 6 and 1 of 6

**Q.** And the survivor count (dose: 200.0 mg/kg/injection, schedule: Q04DX003 (ip), vehicle: saline sonified)?
**A.** 3 of 6

**Q.** What about the survivor count (dose: 400.0 mg/kg/injection, schedule: Q04DX003 (ip), vehicle: saline sonified) of the same compound?
**A.** 1 of 6

**Q.** Which T/C (dose: 6.25 mg/kg/injection, schedule: Q01DX009 (ip), vehicle: distilled water + Tween-80) does the source give for `CNC(=O)OCc1c(COC(=O)NC)c(-c2ccccc2)n(C)c1C` here?
**A.** 134 and 135 % of control

**Q.** And the T/C (dose: 12.5 mg/kg/injection, schedule: Q01DX009 (ip), vehicle: distilled water + Tween-80)?
**A.** 130 and 132 % of control

**Q.** And the T/C (dose: 25.0 mg/kg/injection, schedule: Q01DX009 (ip), vehicle: distilled water + Tween-80)?
**A.** 140 and 145 % of control

**Q.** And the survivor count (dose: 50.0 mg/kg/injection, schedule: Q01DX009 (ip), vehicle: distilled water + Tween-80)?
**A.** 6 of 6

**Q.** And the survivor count (dose: 100.0 mg/kg/injection, schedule: Q01DX009 (ip), vehicle: distilled water + Tween-80)?
**A.** 2 of 6 and 5 of 6

**Q.** For `COc1c(Cl)c2c(c(OC)c1OC)-c1ccc(OC)c(=O)cc1C(NC(C)=O)CC2` (stereo not drawn), which survivor count (dose: 3.12 mg/kg/injection, schedule: Q01DX009 (ip), vehicle: Klucel (hydroxypropylcellulose) (HPC)) is on record?
**A.** 5 of 5

**Q.** And the survivor count (dose: 6.25 mg/kg/injection, schedule: Q01DX009 (ip), vehicle: Klucel (hydroxypropylcellulose) (HPC))?
**A.** 4 of 5 and 5 of 5

**Q.** And the survivor count (dose: 12.5 mg/kg/injection, schedule: Q01DX009 (ip), vehicle: Klucel (hydroxypropylcellulose) (HPC))?
**A.** 0 of 5

**Q.** What about the survivor count (dose: 25.0 mg/kg/injection, schedule: Q01DX009 (ip), vehicle: Klucel (hydroxypropylcellulose) (HPC)) of the same compound?
**A.** 0 of 5

**Q.** `CC12C(=O)C=CCC1=CCC1C2CCC2(O)C(=O)OC3(C)C4CC5(C)C(COC16OC23C5C6=O)C(=O)O4` (stereo not drawn) was tested. Which T/C (dose: 225.0 mg/kg/injection, schedule: Q01DX009 (ip), vehicle: Klucel (hydroxypropylcellulose) (HPC)) did it give?
**A.** 132 % of control

**Q.** And the T/C (dose: 300.0 mg/kg/injection, schedule: Q01DX009 (ip), vehicle: Klucel (hydroxypropylcellulose) (HPC))?
**A.** 137 % of control

**Q.** Which survivor count (dose: 400.0 mg/kg/injection, schedule: Q04DX002 (ip), vehicle: saline) does the source give for `CCO/C=C(\C#N)S(=O)(=O)/C(C#N)=C/OCC` here?
**A.** 0 of 6

**Q.** What does the source list for `COc1cccc2c1C(=O)c1c(O)c3c(c(O)c1C2=O)C[C@@](O)(/C(CO)=N/NC(=O)c1ccc(Cl)c(Cl)c1)C[C@@H]3OC1CC(N)C(O)C(C)O1` (stereo partly drawn)?
**A.** T/C (dose: 0.25 mg/kg/injection, schedule: Q01DX009 (ip), vehicle: water): 125 % of control; T/C (dose: 0.5 mg/kg/injection, schedule: Q01DX009 (ip), vehicle: water, evaluated on day 30): 143 % of control; T/C (dose: 0.5 mg/kg/injection, schedule: Q01DX009 (ip), vehicle: water, evaluated on day 45): 137 % of control; T/C (dose: 4.0 mg/kg/injection, schedule: Q04DX003 (ip), vehicle: saline): 128 % of control; T/C (dose: 6.25 mg/kg/injection, schedule: Q04DX003 (ip), vehicle: water): 132 % of control; T/C (dose: 8.0 mg/kg/injection, schedule: Q04DX003 (ip), vehicle: saline): 100, 118, 126, 146 % of control; survivor count (dose: 16.0 mg/kg/injection, schedule: Q01DX009 (ip), vehicle: water): 6 of 6 (2×); T/C (dose: 16.0 mg/kg/injection, schedule: Q04DX003 (ip), vehicle: saline): 125, 126, 128, 181 % of control; T/C (dose: 32.0 mg/kg/injection, schedule: Q04DX003 (ip), vehicle: saline): 127, 131, 146, 172 % of control; T/C (dose: 50.0 mg/kg/injection, schedule: Q04DX003 (ip), vehicle: water): 126 and 135 % of control; T/C (dose: 64.0 mg/kg/injection, schedule: Q04DX003 (ip), vehicle: saline): 131, 137 (2×), 163 % of control; T/C (dose: 128.0 mg/kg/injection, schedule: Q04DX003 (ip), vehicle: saline): 134, 155 (2×), 168 % of control; T/C (dose: 256.0 mg/kg/injection, schedule: Q04DX003 (ip), vehicle: saline): 126, 128, 136, 137 % of control; T/C (dose: 512.0 mg/kg/injection, schedule: Q04DX003 (ip), vehicle: saline): 126 % of control; survivor count (dose: 2048.0 mg/kg/injection, schedule: Q04DX003 (ip), vehicle: saline): 6 of 6 on day 9
